# Measured values reported in PubChem BioAssay AID504834 (National Center for Advancing Translational Sciences (NCATS), 2011).
# Screen size: about 320,000 compounds; about 22,000 (6.9%) were called active. This list was built around the results that the source calls inconclusive (neither active nor inactive); the mix of calls is not that of the screen. Calls come from the whole dose curve; as a rule, active = well fitted inhibition curve with a large enough effect; inconclusive = small, poorly fitted or top-dose-only effect, or another doubt; inactive = no such curve, though single readings can be large or run the other way. Potencies of inconclusive entries are doubtful fits and often do not repeat.
# Assay: Primary qHTS for delayed death inhibitors of the malarial parasite plastid, 96 hour incubation
# Settings: P. falciparum luciferase reporter growth; series mostly up to 28.7 µM
# Outline: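 Infected RBCs, 2% Hct / 0.05% parasitemia final; luciferase-reporter P. falciparum; cpd 96 h, 37 C, 5% CO2; luciferase detection reagent; luminescence.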
# Potency is the fitted concentration of half-maximal effect.
row,Structure (SMILES),Potency
1,O=[N+]([O-])c1cccnc1N1CCC(c2cc(-c3ccc(Cl)cc3)n[nH]2)CC1,"inconclusive: 18.5 µM [inhibitor, single point]"
2,CCOc1ccc(Cn2c(SCCCCC#N)nc3c2c(=O)n(C)c(=O)n3C)cc1OCC,"inconclusive: 0.329 µM [inhibitor, full curve, poor fit]"
3,CCCCc1ccc(S(=O)(=O)NCCCN2CCCC2=O)cc1,inactive
4,COc1ccc2[nH]c3c(C)c4ccncc4c(C)c3c2c1,active: 0.37 µM
5,CC(C)c1cc(CNC(=O)C2CCC(=O)N(Cc3ccccc3F)C2)on1 (stereo not drawn),"inconclusive: 11.7 µM [inhibitor, single point]"
6,C/C(=N\Nc1nccnc1Cl)c1ccc(Cl)c(Cl)c1,inactive
7,Cn1nc(C(C)(C)C)c([N+](=O)[O-])c1C(=O)Nc1ccccc1,"inconclusive: 18.5 µM [inhibitor, single point]"
8,Cn1c(=O)oc2cc(S(=O)(=O)N3CCCC(C(=O)NC4CCCc5ccccc54)C3)ccc21 (stereo not drawn),"inconclusive: 9.28 µM [inhibitor, partial curve, poor fit]"
9,O=c1cc(N2CCCC2)c(-c2ccccc2)n[nH]1,"inconclusive: 16.5 µM [inhibitor, single point]"
10,COc1ccc(C(=O)N2CCCC(Nc3ccc(C)c(C)c3)C2)cc1F (stereo not drawn),"inconclusive: 18.5 µM [inhibitor, single point]"
11,COc1ccc(CCNC(=O)c2csc3c2CCCC3)cc1OC,inactive
12,CC=CC1=C(C(=O)O)N2C(=O)[C@H](NC(=O)[C@H](N)c3ccc(O)cc3)[C@@H]2SC1,"inconclusive: 8.49 µM [inhibitor, partial curve]"
13,CC(C)CN(C(=O)CSc1nnnn1-c1ccccc1)c1c(N)n(CC(C)C)c(=O)[nH]c1=O,inactive
14,CCCCN1C2CCCC1CC(NC(=O)c1cccc(Cl)c1)C2 (stereo not drawn),"inconclusive: 18.5 µM [inhibitor, single point]"
15,COc1ccccc1-n1c(SCC(=O)Nc2cccc3ccccc23)nc(O)cc1=O,inactive
16,CCC(C)N1C(=O)c2ccccc2C1C(=O)NC1CCCCCC1 (stereo not drawn),"inconclusive: 0.262 µM [inhibitor, full curve, poor fit]"
17,COc1ccc(S(=O)(=O)CCC(=O)NCCc2ccc(Cl)cc2)cc1,"inconclusive: 9.28 µM [inhibitor, partial curve]"
18,COc1ccc(C(=O)CCC(=O)Nc2cc(Cl)c(O)c(Cl)c2)cc1,inactive
19,CCN(CC)S(=O)(=O)c1ccc(Cl)c(C(=O)Nc2nncs2)c1,inactive
20,O=C(NC(=S)Nc1ccc(Cl)c(C(=O)O)c1)c1cccc(COc2ccccc2)c1,"inconclusive: 10.4 µM [inhibitor, single point]"
21,C=CCC1=C/C(=C\c2c(N)n3nc(CC(=O)N4CCCC4)sc3nc2=O)C=C(OC)C1=O,"inconclusive: 11.7 µM [inhibitor, single point]"
22,NC(=O)CSc1nc2c(sc3ccccc32)c(=O)n1CCCC(=O)NCC1CCCO1 (stereo not drawn),"inconclusive: 4.15 µM [inhibitor, single point]"

# Laid out differently: entries from further up
row	Structure (SMILES)	Potency
5	CC(C)c1cc(CNC(=O)C2CCC(=O)N(Cc3ccccc3F)C2)on1 (stereo not drawn)	inconclusive: 11.7 µM [inhibitor, single point]
6	C/C(=N\Nc1nccnc1Cl)c1ccc(Cl)c(Cl)c1	inactive
7	Cn1nc(C(C)(C)C)c([N+](=O)[O-])c1C(=O)Nc1ccccc1	inconclusive: 18.5 µM [inhibitor, single point]
8	Cn1c(=O)oc2cc(S(=O)(=O)N3CCCC(C(=O)NC4CCCc5ccccc54)C3)ccc21 (stereo not drawn)	inconclusive: 9.28 µM [inhibitor, partial curve, poor fit]
9	O=c1cc(N2CCCC2)c(-c2ccccc2)n[nH]1	inconclusive: 16.5 µM [inhibitor, single point]
10	COc1ccc(C(=O)N2CCCC(Nc3ccc(C)c(C)c3)C2)cc1F (stereo not drawn)	inconclusive: 18.5 µM [inhibitor, single point]
11	COc1ccc(CCNC(=O)c2csc3c2CCCC3)cc1OC	inactive
12	CC=CC1=C(C(=O)O)N2C(=O)[C@H](NC(=O)[C@H](N)c3ccc(O)cc3)[C@@H]2SC1	inconclusive: 8.49 µM [inhibitor, partial curve]

# (cont.)

row,Structure (SMILES),Potency
1,COc1ccc(-c2nc(CS(=O)CC(=O)NCc3ccccn3)c(C)o2)cc1 (stereo not drawn),active: 11.7 µM
2,O=C(Nc1ccncc1)c1ccc(NS(=O)(=O)c2ccc3[nH]c(=O)[nH]c3c2)cc1,"inconclusive: 18.5 µM [inhibitor, single point]"
3,Cc1ccc(CCC(=O)Nc2ccc(C#N)cc2)o1,"inconclusive: 18.5 µM [inhibitor, single point]"
4,O=c1cc(NCc2ccccc2)nc2n1CCCS2,"inconclusive: 8.28 µM [inhibitor, partial curve, poor fit]"
5,CCOC(=O)C1(Cc2cccc(OC)c2)CCCN(CCO)C1 (stereo not drawn),"inconclusive: 18.5 µM [inhibitor, single point]"
6,CCOc1ccc(NS(=O)(=O)c2ccc(C(=O)NC3CCN(Cc4ccccc4)CC3)cc2)cc1,"inconclusive: 10.4 µM [inhibitor, single point]"
7,O=C1C2N=NN(CC(=O)N3N=C(c4cccc5ccccc45)CC3c3ccccc3)C2C(=O)N1c1ccccc1 (stereo not drawn),"inconclusive: 18.5 µM [inhibitor, partial curve, poor fit]"
8,O=C(Nc1ccc([N+](=O)[O-])cc1)Nc1ccc2c(c1)OCCO2,inactive
9,COc1ccc(NC(=O)c2ccc(C)cc2Cl)c([N+](=O)[O-])c1,active: 3.7 µM
10,COc1c(Cl)cc(C(=O)Nc2ccc(Cl)cn2)cc1Cl,"inconclusive: 14.7 µM [inhibitor, single point]"
11,CCCCOc1ccc(C(=O)Nc2ccc(SC(F)F)cc2)cc1OC,inactive
12,CCC(C(=O)NCCN1CCOCC1)n1nc(C)n2c(cc3sccc32)c1=O (stereo not drawn),"inconclusive: 18.5 µM [inhibitor, single point]"
13,Cc1cc(C)n2nc(-c3cnn(C)c3C(F)(F)F)cc2n1,"inconclusive: 18.5 µM [inhibitor, single point]"
14,Cc1ccc(-c2csc3nc4c5ccccc5c(NCCCN(C)C)nn4c(=O)c23)cc1,"inconclusive: 18.5 µM [inhibitor, single point]"
15,O=C(O)c1cc(NN=C2CCN(Cc3ccccc3)CC2)ccc1Cl,"inconclusive: 4.15 µM [inhibitor, partial curve, poor fit]"
16,CN(Cc1ccc(Cl)cc1Cl)C(=O)CN1C(=O)NC2(CCCC2)C1=O,inactive
17,CSCCC(NS(=O)(=O)c1ccccc1F)C(=O)NCc1ccncc1 (stereo not drawn),inactive
18,COc1ccc(-n2c(C)cc(C)c(C(C)=O)c2=S)cc1,active: 11.7 µM
19,O=C(CSc1nnc(CNC(=O)c2cccs2)o1)Nc1ccccc1F,"inconclusive: 14.7 µM [inhibitor, partial curve, poor fit]"
20,O=C1/C(=C/c2ccc(O)c([N+](=O)[O-])c2)SC(=S)N1Cc1ccccc1,"inconclusive: 0.0738 µM [inhibitor, full curve, poor fit]"
21,O=C(/C=C/c1ccccc1)c1ccccc1,"inconclusive: 10.4 µM [inhibitor, partial curve, poor fit]"
